Counter-ions that a name gives are not always drawn. ± gives the standard deviation of the averaged measurements. The list shows a part of the results. Values are raw readings; no control value is given beside them.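 One yeast strain harboring four plasmids, each bearing a fluorescent protein plus an amino-acid or uracil synthesis gene, founds the community. Random loss of plasmids produces mixed prototroph and auxotroph subpopulations. Cells were fixed, then counted with automated confocal fluorescence imaging, with DMSO-treated wells as vehicle reference.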
Test system: Saccharomyces cerevisiae BY4741 SeMeCo community
Assay: imaged cell count per well (cells); higher = more cells
Conditions: 10 µM; 24 h; SM minimal medium
Experimental: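 Same SeMeCo high-content imaging drug screen: Selleck FDA-approved drugs at 10 µM, 24 h in SM medium, 384-well plates, 3 replicates.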

Row | SMILES | imaged cell count per well
1 | O=C(O)c1ccccc1C(=O)Nc1ccc(S(=O)(=O)Nc2nccs2)cc1 [Phthalylsulfathiazole] | 27700 ± 4000
2 | CC(C)c1nc(N(C)S(C)(=O)=O)nc(-c2ccc(F)cc2)c1/C=C/[C@@H](O)C[C@@H](O)CC(=O)O [Rosuvastatin] | 13000 ± 640
3 | C[C@]1(COc2ccc(N3CCC(Oc4ccc(OC(F)(F)F)cc4)CC3)cc2)Cn2cc([N+](=O)[O-])nc2O1 [Delamanid] | 29700 ± 3100
4 | CSCC1CN(/N=C/c2ccc([N+](=O)[O-])o2)C(=O)O1 (stereo not given) [Nifuratel] | 24900 ± 3000
5 | CC1(C)S[C@@H]2[C@H](NC(=O)[C@H](N)c3ccccc3)C(=O)N2[C@H]1C(=O)O [Ampicillin sodium] | 27400 ± 4000
6 | CN(C)CC/C=C1/c2ccccc2Sc2ccc(Cl)cc21 [Chlorprothixene] | 26500 ± 2100
7 | COc1cc2c(cc1OC)C(=O)C(CC1CCN(Cc3ccccc3)CC1)C2 (stereo not given) [Donepezil] | 29900 ± 4000
8 | O=C1OCCN1/N=C/c1ccc([N+](=O)[O-])o1 [Furazolidone] | 20900 ± 4200
9 | CCCCC(F)(F)[C@@]1(O)CC[C@H]2[C@@H](CC(=O)[C@@H]2CCCCCCC(=O)O)O1 [Lubiprostone] | 25700 ± 3200
10 | NC[C@H]1O[C@H](O[C@H]2[C@H](O)[C@@H](O[C@H]3O[C@H](CO)[C@@H](O)[C@H](N)[C@H]3O)[C@H](N)C[C@@H]2N)[C@H](N)C[C@@H]1O [Tobramycin] | 33100 ± 640
11 | COC(=O)Nc1nc2cc(C(=O)c3ccccc3)ccc2[nH]1 [Mebendazole] | 17900 ± 6100
12 | CC(=O)[C@H]1CC[C@H]2[C@@H]3CCC4=CC(=O)CC[C@]4(C)[C@H]3CC[C@]12C [Progesterone] | 22900 ± 3200
13 | CC1=C(C(=O)O)N2C(=O)[C@@H](NC(=O)[C@H](N)C3=CCC=CC3)[C@H]2SC1 [Cefradine] | 21500 ± 3300
14 | O=C(CCCN1CCN(c2ccccn2)CC1)c1ccc(F)cc1 [Azaperone] | 27800 ± 1900
15 | Cc1cccc(N(C)C(=S)Oc2ccc3ccccc3c2)c1 [Tolnaftate] | 26700 ± 2000
16 | Cc1onc(-c2ccccc2)c1C(=O)N[C@@H]1C(=O)N2[C@@H]1SC(C)(C)[C@@H]2C(=O)O [Oxacillin sodium monohydrate] | 24600 ± 3300
17 | Cc1ccc(Sc2ccccc2N2CCNCC2)c(C)c1 | 23600 ± 1300
18 | CC[C@@H]1/C=C(\C)C[C@H](C)C[C@H](OC)[C@H]2O[C@@](O)(C(=O)C(=O)N3CCCC[C@H]3C(=O)O[C@H](/C(C)=C/[C@@H]3CC[C@@H](O)[C@H](OC)C3)[C@H](C)[C@@H](O)CC1=O)[C@H](C)C[C@@H]2OC [Ascomycin (FK520)] | 27500 ± 1300
19 | CC[C@H]1OC(=O)C[C@@H](O)[C@H](C)[C@@H](O[C@@H]2O[C@H](C)[C@@H](O)[C@H](N(C)C)[C@H]2O)[C@@H](CCN2C[C@H](C)C[C@H](C)C2)C[C@@H](C)C(=O)/C=C/C(C)=C/[C@@H]1CO[C@@H]1O[C@H](C)[C@@H](O)[C@@H](OC)[C@H]1OC [Tilmicosin phosphate] | 28100 ± 1400
20 | CC/C(=C(\c1ccccc1)c1ccc(OCCN(C)C)cc1)c1ccccc1 [Tamoxifen Citrate] | 32100 ± 3600

Three neighbouring records out of the list so far, for reference:
Row | SMILES | imaged cell count per well
18 | CC[C@@H]1/C=C(\C)C[C@H](C)C[C@H](OC)[C@H]2O[C@@](O)(C(=O)C(=O)N3CCCC[C@H]3C(=O)O[C@H](/C(C)=C/[C@@H]3CC[C@@H](O)[C@H](OC)C3)[C@H](C)[C@@H](O)CC1=O)[C@H](C)C[C@@H]2OC [Ascomycin (FK520)] | 27500 ± 1300
19 | CC[C@H]1OC(=O)C[C@@H](O)[C@H](C)[C@@H](O[C@@H]2O[C@H](C)[C@@H](O)[C@H](N(C)C)[C@H]2O)[C@@H](CCN2C[C@H](C)C[C@H](C)C2)C[C@@H](C)C(=O)/C=C/C(C)=C/[C@@H]1CO[C@@H]1O[C@H](C)[C@@H](O)[C@@H](OC)[C@H]1OC [Tilmicosin phosphate] | 28100 ± 1400
20 | CC/C(=C(\c1ccccc1)c1ccc(OCCN(C)C)cc1)c1ccccc1 [Tamoxifen Citrate] | 32100 ± 3600

(more compounds)

Row | SMILES | imaged cell count per well
21 | O=c1[nH]cnc2c1ncn2[C@@H]1O[C@H](CO)[C@@H](O)[C@H]1O [Isoprinosine] | 33100 ± 6400
22 | C[C@@H](O)[C@H]1C(=O)N2C(C(=O)O)=C(S[C@@H]3CN[C@H](C(=O)N(C)C)C3)[C@H](C)[C@H]12 [Meropenem] | 25000 ± 9900
23 | CNCC[C@H](Oc1cccc2ccccc12)c1cccs1 [Duloxetine] | 24800 ± 3800
24 | CCn1cc(C(=O)O)c(=O)c2ccc(C)nc21 [Nalidixic acid] | 25200 ± 2500
25 | CC[C@H]1OC(=O)[C@H](C)[C@@H](O[C@H]2C[C@@](C)(OC)[C@@H](O)[C@H](C)O2)[C@H](C)[C@@H](O[C@@H]2O[C@H](C)C[C@H](N(C)C)[C@H]2O)[C@](C)(O)C[C@@H](C)CN[C@H](C)[C@@H](O)[C@]1(C)O [Azathramycin] | 26000 ± 4900
26 | CNC1CCCN(c2c(F)cc3c(=O)c(C(=O)O)cn(C4CC4)c3c2OC)C1 (stereo not given) [Balofloxacin] | 25200 ± 7200
27 | CN[C@H](CC(C)C)C(=O)N[C@H]1C(=O)N[C@@H](CC(N)=O)C(=O)N[C@H]2C(=O)N[C@H]3C(=O)N[C@H](C(=O)N[C@H](C(=O)O)c4cc(O)cc(O)c4-c4cc3ccc4O)[C@H](O)c3ccc(c(Cl)c3)Oc3cc2cc(c3O[C@@H]2O[C@H](CO)[C@@H](O)[C@H](O)[C@H]2O[C@H]2C[C@](C)(N)[C@H](O)[C@H](C)O2)Oc2ccc(cc2Cl)[C@H]1O [Vancomycin HCl] | 22100 ± 3100
28 | Nc1ccc2cc3ccc(N)cc3nc2c1 [Proflavine] | 30600 ± 910
29 | CCN(CC)CCOc1ccc2c(c1)C(=O)c1cc(OCCN(CC)CC)ccc1-2 [Tilorone dihydrochloride] | 26000 ± 4200
30 | CN1CCc2cc3c(cc2C(=O)Cc2ccc4c(c2C1)OCO4)OCO3 [Protopine] | 28800 ± 3300
31 | OC(CCCN1CCCCC1)(c1ccccc1)c1ccccc1 [Diphenidol HCl] | 23200 ± 12000
32 | Cc1cc(O)c(C(=O)N[C@@H](C(=O)N[C@@H]2C(=O)N3C(C(=O)O)=C(CSc4nnnn4C)CS[C@H]23)c2ccc(O)cc2)cn1 [Cefpiramide sodium] | 28100 ± 6200
33 | O=C(O)c1cc(=O)c2c(OCC(O)COc3cccc4oc(C(=O)O)cc(=O)c34)cccc2o1 [Disodium Cromoglycate] | 20800 ± 10000
34 | Nc1nc2[nH]cc(CCc3ccc(C(=O)N[C@@H](CCC(=O)O)C(=O)O)cc3)c2c(=O)[nH]1 [Pemetrexed Disodium Hydrate] | 8660 ± 3500
35 | CC(N)C12CC3CC(CC(C3)C1)C2 (stereo not given) [Rimantadine] | 17800 ± 6600
36 | O=c1cc(-c2ccc(O)c(O)c2)oc2cc(O)cc(O)c12 [Luteolin] | 26500 ± 1500
37 | Cn1c(=O)c2[nH]cnc2n(C)c1=O [Aminophylline] | 22800 ± 6400
38 | NCC[C@H](O)C(=O)N[C@@H]1C[C@H](N)[C@@H](O[C@H]2O[C@H](CN)[C@@H](O)[C@H](O)[C@H]2O)[C@H](O)[C@H]1O[C@H]1O[C@H](CO)[C@@H](O)[C@H](N)[C@H]1O [Amikacin disulfate] | 27000 ± 5800
39 | O=C1CN(/N=C/c2ccc([N+](=O)[O-])o2)C(=O)N1 [Nitrofurantoin] | 22500 ± 2500
40 | CC(=O)Oc1ccccc1C(=O)O [Aspirin] | 20500 ± 4100

From the supplement of paper PMC8975748
